PubChem BioAssay AID1671195 – Yale University, 2021
Shown is one part, drawn at random, of about 22,000 deposited reagents. About 1,510 of all reagents (6.9%) count as active. 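Active includes knockdowns raising or lowering LDL uptake; positive z-scores mean more uptake, negative mean less.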 The numbers tell different reagents against one gene apart.

Purpose: 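Knockdowns that increase or decrease uptake of fluorescent LDL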 (primary screen)
System: human Huh7 hepatoma cells
Reagent: siRNA pool against human genes, 18 nM
Time to read-out: about 2 to 2.5 days of knockdown, then 8 h LDL uptake
Conditions: DiI-labelled LDL at 30 µg/ml for 8 h, in lipoprotein-deficient serum medium
Measurement: 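Per-cell DiI-LDL intensity by automated imaging; well means scaled to the plate median and given as a robust z-score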
Direction: robust z-score: higher = more LDL uptake after knockdown
Rule for the call: 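a gene counts as active if at least two replicate z-scores exceed ±2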

| gene | reagent no. | robust z-score, replicate 1 | robust z-score, replicate 2 | robust z-score, replicate 3 | call |
| --- | --- | --- | --- | --- | --- |
| SPRY4 | 1 | 0.856 | 0.985 | -0.21 | inactive |
| KCNIP4 | 1 | -1.61 | -1.73 | -1.14 | inactive |
| OR5P3 | 1 | -0.67 | -0.714 | -1.29 | inactive |
| SHISAL2A | 1 | 0.0699 | -0.558 | 0.236 | inactive |
| LOC389409 (retired record) | 1 | -0.0592 | 0.358 | 0.362 | inactive |
| P4HA3 | 1 | -1.23 | -0.59 | -0.985 | inactive |
| TEP1 | 1 | 0.209 | 0.0556 | -0.116 | inactive |
| DNAJC1 | 1 | 1.09 | 0.756 | 0.84 | inactive |
| CNOT10 | 1 | -0.531 | 0.898 | -0.431 | inactive |
| DAW1 | 1 | 0.774 | -0.486 | -0.207 | inactive |
| LOC343221 (retired record) | 1 | 0.0579 | 0.0841 | 0.0131 | inactive |
| VWA5B1 | 1 | -0.0148 | -0.308 | 0.407 | inactive |
| RALYL | 1 | -0.834 | -1.75 | -0.923 | inactive |
| NOP53 | 1 | -1.79 | -0.238 | 0.462 | inactive |
| LOC440790 (retired record) | 1 | -0.259 | -0.0298 | -0.0593 | inactive |
| ERGIC3 | 1 | -0.245 | -1.37 | -0.853 | inactive |
| DCAF16 | 1 | 0.384 | -0.353 | 0.43 | inactive |
| CXCL9 | 1 | -0.0637 | -0.0017 | -0.378 | inactive |
| SPRY3 | 1 | -0.29 | -1.09 | -0.269 | inactive |
| TPGS2 | 1 | -0.98 | -0.485 | -1.59 | inactive |
| DEFA4 | 1 | -0.784 | -0.000111 | -1.83 | inactive |
| NR1H3 | 1 | -1.05 | -0.247 | 0.0917 | inactive |
| CAPNS2 | 1 | -1.32 | -0.367 | -1.76 | inactive |
| GTF2B | 1 | 2.01 | 1.69 | 1.62 | inactive |
| BTNL3 | 1 | 3.21 | 2.64 | 2.78 | active |
| CMC1 | 1 | 0.488 | 0.712 | 0.296 | inactive |
| ZFAND5 | 1 | -0.231 | 0.947 | 0.213 | inactive |
| C1QL2 | 1 | 0.0113 | -0.576 | 0.944 | inactive |
| CDK5R1 | 1 | -2.05 | -1.46 | -0.591 | inactive |
| TRAPPC3 | 1 | 1.03 | 1.79 | 2.82 | inactive |
| VTI1B | 1 | 0.448 | 0.814 | -0.238 | inactive |
| BTN1A1 | 1 | 0.534 | 0.139 | 0.349 | inactive |
| MYO18A | 1 | 1.34 | 1.43 | -0.233 | inactive |
| TAF4B | 1 | 0.553 | -0.0722 | -0.397 | inactive |
| HS3ST1 | 1 | -0.949 | -0.89 | -0.832 | inactive |
| STAU1 | 1 | 1.78 | 2.23 | 2.19 | active |
| MED27 | 1 | -1.51 | 0.164 | -1.36 | inactive |
| PLAUR | 1 | 1.7 | 1.46 | 1.85 | inactive |
| PSMD9 | 1 | 0.661 | 0.63 | 0.595 | inactive |
| HMCN2 | 1 | 0.202 | 0.618 | 0.475 | inactive |
| LOC143243 (retired record) | 1 | -1.4 | -2.23 | -0.845 | inactive |
| COQ3 | 1 | -3.01 | 0.557 | 0.048 | inactive |
| ABRAXAS2 | 1 | 0.148 | 1.88 | -1.08 | inactive |
| PTPN21 | 1 | 1.35 | 1.56 | 1.28 | inactive |
| LRP12 | 1 | 1.02 | 0.482 | 0.794 | inactive |
| GAA | 1 | 2.64 | 1.74 | 2.6 | active |
| ARHGEF9 | 1 | -0.624 | -0.885 | -0.761 | inactive |
| UBR4 | 1 | -0.0926 | -0.944 | -0.0315 | inactive |
| UBR4 | 2 | -1.86 | 0.707 | -2.35 | inactive |
| CARMIL1 | 1 | 0.134 | 1.92 | -0.143 | inactive |
| LOC441860 (retired record) | 1 | -0.924 | -0.49 | -0.502 | inactive |
| KDM6A | 1 | 1.2 | 2.11 | 0.417 | inactive |
| POP1 | 1 | -1.35 | 1.2 | 0.0574 | inactive |
| TXNDC12 | 1 | -0.164 | -0.599 | 0.268 | inactive |
| LRRTM2 | 1 | 0.369 | 1.38 | 2.73 | inactive |
| HAL | 1 | -1.88 | -1.35 | -1.63 | inactive |
| LOC347424 (retired record) | 1 | -0.87 | -1.19 | -0.934 | inactive |
| NMS | 1 | 0.881 | -0.756 | -0.373 | inactive |
| IL6ST | 1 | -1.07 | -3.53 | -0.977 | inactive |
| ZNF14 | 1 | 0.0338 | -0.372 | -0.397 | inactive |
| LOC440110 (retired record) | 1 | -0.511 | -0.0412 | -0.384 | inactive |
| AREL1 | 1 | -1.37 | 0.979 | 0.347 | inactive |
| PMS2P3 | 1 | -0.219 | 0.311 | 0.207 | inactive |
| CTSA | 1 | -0.605 | -0.39 | -0.56 | inactive |
| TPR | 1 | -0.504 | -0.279 | -0.365 | inactive |
| DNAJC21 | 1 | 1.08 | 1.29 | 2.09 | inactive |
| DACH2 | 1 | 1.71 | 1.47 | 2.07 | inactive |
| TNS3 | 1 | 0.777 | 0.936 | 1.2 | inactive |

8 neighbouring records from above:
| gene | reagent no. | robust z-score, replicate 1 | robust z-score, replicate 2 | robust z-score, replicate 3 | call |
| --- | --- | --- | --- | --- | --- |
| DAW1 | 1 | 0.774 | -0.486 | -0.207 | inactive |
| LOC343221 (retired record) | 1 | 0.0579 | 0.0841 | 0.0131 | inactive |
| VWA5B1 | 1 | -0.0148 | -0.308 | 0.407 | inactive |
| RALYL | 1 | -0.834 | -1.75 | -0.923 | inactive |
| NOP53 | 1 | -1.79 | -0.238 | 0.462 | inactive |
| LOC440790 (retired record) | 1 | -0.259 | -0.0298 | -0.0593 | inactive |
| ERGIC3 | 1 | -0.245 | -1.37 | -0.853 | inactive |
| DCAF16 | 1 | 0.384 | -0.353 | 0.43 | inactive |
